Values quoted from earlier work in patent US20230143752A1, “CANNABIDIOL NANODRUG FORMULATIONS AND METHODS FOR USE OF THE SAME” (priority 2020, published 2023).
At least one compound was matched to its structure with a doubt left.

Test system: C3H mouse model of AA
Conditions: cited from earlier work

CCC(C)(C)C(=O)O[C@H]1C[C@@H](C)C=C2C=C[C@H](C)[C@H](CC[C@@H]3C[C@@H](O)CC(=O)O3)[C@H]21 [simvastatin]
reversing AA phenotype: effective therapeutic agent in reversing AA phenotype
